Data reported in patent US20050084884A1.
These are yes or no findings as the source states them, for the method shown. Binding seen in cells or lysates may run through a third protein. Some binding calls cover weakened binding; strength is not graded here. Tags and fused reporters may be left off the sequences shown.

Protein sequences, listed by entry. Tags and fused reporters are not part of them. Lines headed by an entry give the natural chain unless they say otherwise; changes in a name come on top.
UniProt Q13233: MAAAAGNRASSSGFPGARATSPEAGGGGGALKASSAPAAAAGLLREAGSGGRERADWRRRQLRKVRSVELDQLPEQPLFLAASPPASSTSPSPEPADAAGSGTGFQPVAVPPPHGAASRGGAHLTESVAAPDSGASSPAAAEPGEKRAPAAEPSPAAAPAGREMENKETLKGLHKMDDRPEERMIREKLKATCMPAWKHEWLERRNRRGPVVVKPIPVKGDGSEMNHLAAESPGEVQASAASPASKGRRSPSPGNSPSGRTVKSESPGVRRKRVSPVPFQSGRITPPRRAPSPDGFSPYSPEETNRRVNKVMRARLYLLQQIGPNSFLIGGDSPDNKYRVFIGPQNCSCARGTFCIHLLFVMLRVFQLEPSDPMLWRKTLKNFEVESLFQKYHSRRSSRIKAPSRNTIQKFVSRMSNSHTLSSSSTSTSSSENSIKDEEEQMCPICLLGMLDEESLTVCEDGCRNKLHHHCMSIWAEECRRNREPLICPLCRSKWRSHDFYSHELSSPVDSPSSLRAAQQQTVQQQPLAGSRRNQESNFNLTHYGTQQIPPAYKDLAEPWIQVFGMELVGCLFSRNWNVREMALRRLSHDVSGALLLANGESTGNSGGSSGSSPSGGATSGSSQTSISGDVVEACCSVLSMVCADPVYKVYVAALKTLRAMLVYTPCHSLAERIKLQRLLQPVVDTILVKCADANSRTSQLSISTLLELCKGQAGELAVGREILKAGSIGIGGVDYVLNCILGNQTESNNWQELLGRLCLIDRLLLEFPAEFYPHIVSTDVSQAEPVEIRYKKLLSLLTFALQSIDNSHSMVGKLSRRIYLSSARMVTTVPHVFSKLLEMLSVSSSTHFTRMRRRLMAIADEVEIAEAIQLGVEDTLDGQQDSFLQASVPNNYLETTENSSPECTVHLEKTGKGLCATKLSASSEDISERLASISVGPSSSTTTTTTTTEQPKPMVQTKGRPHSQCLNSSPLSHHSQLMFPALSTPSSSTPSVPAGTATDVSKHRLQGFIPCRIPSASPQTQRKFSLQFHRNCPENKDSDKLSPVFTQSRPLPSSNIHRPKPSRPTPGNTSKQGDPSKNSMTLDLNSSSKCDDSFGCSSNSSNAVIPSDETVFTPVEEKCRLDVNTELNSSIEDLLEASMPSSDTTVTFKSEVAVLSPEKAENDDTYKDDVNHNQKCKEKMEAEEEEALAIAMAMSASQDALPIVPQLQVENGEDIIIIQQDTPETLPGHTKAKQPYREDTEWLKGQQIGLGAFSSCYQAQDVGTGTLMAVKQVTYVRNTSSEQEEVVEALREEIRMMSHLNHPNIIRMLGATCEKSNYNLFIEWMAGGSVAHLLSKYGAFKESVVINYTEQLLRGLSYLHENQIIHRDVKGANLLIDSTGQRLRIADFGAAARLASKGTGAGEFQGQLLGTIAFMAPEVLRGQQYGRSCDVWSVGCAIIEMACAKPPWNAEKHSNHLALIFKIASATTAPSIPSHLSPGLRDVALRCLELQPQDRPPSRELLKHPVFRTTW
UniProt Q99558: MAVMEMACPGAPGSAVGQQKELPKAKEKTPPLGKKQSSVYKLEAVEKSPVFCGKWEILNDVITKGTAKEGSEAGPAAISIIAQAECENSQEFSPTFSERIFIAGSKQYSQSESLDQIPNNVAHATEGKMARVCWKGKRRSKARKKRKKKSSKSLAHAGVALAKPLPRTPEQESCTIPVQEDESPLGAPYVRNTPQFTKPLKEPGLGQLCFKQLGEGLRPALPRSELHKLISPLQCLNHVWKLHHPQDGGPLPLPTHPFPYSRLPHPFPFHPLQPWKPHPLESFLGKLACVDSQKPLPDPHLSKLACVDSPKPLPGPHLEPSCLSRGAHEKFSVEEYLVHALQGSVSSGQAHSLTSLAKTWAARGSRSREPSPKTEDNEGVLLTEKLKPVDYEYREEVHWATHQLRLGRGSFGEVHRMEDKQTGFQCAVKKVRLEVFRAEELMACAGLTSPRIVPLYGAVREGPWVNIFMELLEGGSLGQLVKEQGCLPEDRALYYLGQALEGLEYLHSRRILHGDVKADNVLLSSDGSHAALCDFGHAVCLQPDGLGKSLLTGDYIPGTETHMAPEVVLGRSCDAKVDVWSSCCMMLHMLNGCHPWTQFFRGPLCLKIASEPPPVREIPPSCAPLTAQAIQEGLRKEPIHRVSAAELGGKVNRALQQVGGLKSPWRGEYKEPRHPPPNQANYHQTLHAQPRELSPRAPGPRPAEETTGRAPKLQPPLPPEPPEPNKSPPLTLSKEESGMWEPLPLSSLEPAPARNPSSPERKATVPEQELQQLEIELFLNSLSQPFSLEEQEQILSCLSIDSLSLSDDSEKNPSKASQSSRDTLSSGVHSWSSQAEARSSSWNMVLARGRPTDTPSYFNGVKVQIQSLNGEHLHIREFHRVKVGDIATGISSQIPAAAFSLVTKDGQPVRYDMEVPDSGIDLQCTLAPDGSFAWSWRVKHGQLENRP

How the values were obtained:
myc-tagged IKK1 protein [1] = target: T1, myc-tagged IKK1 protein (UniProt O15111); experiment: co-immunoprecipitation from transfected 293 cell lysates on anti-flag M2 resin, Western blot with anti-myc antibody
T1 sequence (looked up): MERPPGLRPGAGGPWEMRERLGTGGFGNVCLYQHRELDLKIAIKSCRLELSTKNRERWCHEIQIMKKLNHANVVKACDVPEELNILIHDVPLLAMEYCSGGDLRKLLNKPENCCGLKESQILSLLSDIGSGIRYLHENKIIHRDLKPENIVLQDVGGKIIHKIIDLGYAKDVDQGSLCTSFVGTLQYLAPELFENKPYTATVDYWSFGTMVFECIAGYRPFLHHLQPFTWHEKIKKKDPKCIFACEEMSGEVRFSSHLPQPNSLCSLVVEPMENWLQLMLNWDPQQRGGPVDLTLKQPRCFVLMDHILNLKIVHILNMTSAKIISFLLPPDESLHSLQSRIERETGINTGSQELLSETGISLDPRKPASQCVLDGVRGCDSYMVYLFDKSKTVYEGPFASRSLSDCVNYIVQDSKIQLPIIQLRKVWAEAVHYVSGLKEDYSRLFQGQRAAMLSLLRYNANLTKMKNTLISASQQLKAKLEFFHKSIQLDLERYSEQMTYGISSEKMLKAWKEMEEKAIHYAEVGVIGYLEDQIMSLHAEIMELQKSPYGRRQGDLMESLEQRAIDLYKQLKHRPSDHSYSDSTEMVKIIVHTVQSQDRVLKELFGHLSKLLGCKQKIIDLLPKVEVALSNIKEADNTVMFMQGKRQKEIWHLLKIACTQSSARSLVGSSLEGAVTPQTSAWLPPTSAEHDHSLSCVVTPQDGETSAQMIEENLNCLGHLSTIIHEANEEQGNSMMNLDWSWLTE

myc-tagged IKK1 protein [2] = target: T1, myc-tagged IKK1 protein; experiment: co-immunoprecipitation from transfected 293 cell lysates on anti-flag M2 resin, Western blot with anti-myc antibody (positive control)

binding (myc-tagged IKK1 protein [1]) | binding (myc-tagged IKK1 protein [2]) | Substance
binds |  | C-terminal FLAG-tagged full-length human MEKK1 (from UniProt Q13233 1-1512) (enzyme)
 | binds | flag-tagged NIK protein (from UniProt Q99558 1-947) (enzyme)
